# Assay results: PubChem BioAssay AID330 (DTP/NCI, 2004)
# The list does not hold the whole screen: it is rich in T/C values a quarter to a half above the control, in often repeated tests (any T/C) and in doses without a T/C. Other doses and runs of a compound stand elsewhere. T/C is the treated group as % of the vehicle group. Some entries give survivors of the animals treated and no T/C: the source holds a T/C of zero for them, seemingly a mark for toxic or unscored doses. Some survivor counts are full or nearly so, which does not show that the dose was tolerated: the source hardly ever lists a survival T/C far under the control, and the zero likely stands for such cases as well. Survivors were counted at the toxicity check, usually on the fifth day, unless a day is given; later deaths do not show. Schedule codes are those of the source, taken here to give the interval after Q, in days (D) or hours (H), and the number of doses after X. Brackets with × stand for listed records that agree. Some entries were tested several times; their values stand side by side, smallest first. Where survival is the endpoint, the PubChem record calls one and a half times the control and up active, and a quarter to a half above the control has no call in these data; cut-offs in other NCI protocols can differ. Some T/C values are followed by the survivors on the day toxicity was checked, most often the fifth; where none is given, no animal had died by that day.
# Tested on: P388 leukemia ip, CD2F1 mice, survival T/C
# Assay: NCI In Vivo Anticancer Drug Screen. Data for tumor model P388 Leukemia (intraperitoneal) in CD2F1 (CDF1) mice
# Details: T/C endpoint: median survival time, higher T/C = longer survival
structure (smiles),measurement,setting,value
COc1cccc2c1C(=O)c1c(O)c3c(c(O)c1C2=O)C[C@@](O)(C(=O)CO)C[C@@H]3OC1CC(N)C(O)C(C)O1 (some centres not stated),T/C,"dose: 1.08 mg/kg/injection, schedule: Q01DX009 (ip), vehicle: saline, evaluated on day 30",157 % of control
same,T/C,"dose: 1.08 mg/kg/injection, schedule: Q01DX009 (ip), vehicle: saline, evaluated on day 45",186 % of control
same,T/C,"dose: 1.08 mg/kg/injection, schedule: Q01DX009 (ip), vehicle: saline, evaluated on day 60",233 and 236 % of control
same,T/C,"dose: 1.25 mg/kg/injection, schedule: Q01DX001 (ip), vehicle: water, evaluated on day 30",154 and 188 % of control
same,T/C,"dose: 1.25 mg/kg/injection, schedule: Q01DX001 (ip), vehicle: water, evaluated on day 45","144, 154, 155, 158, 159 (2×), 167, 173 % of control"
same,T/C,"dose: 1.25 mg/kg/injection, schedule: Q04DX003 (ip), vehicle: saline",132 % of control
same,T/C,"dose: 1.3 mg/kg/injection, schedule: Q01DX004 (ip), vehicle: saline",145 % of control
same,T/C,"dose: 1.3 mg/kg/injection, schedule: Q04DX002 (ip), vehicle: saline",145 % of control
same,T/C,"dose: 1.3 mg/kg/injection, schedule: Q04DX002 (ip), vehicle: water",138 % of control
same,T/C,"dose: 1.3 mg/kg/injection, schedule: Q04DX003 (ip), vehicle: saline, evaluated on day 9",124 % of control
same,T/C,"dose: 1.3 mg/kg/injection, schedule: Q04DX003 (ip), vehicle: saline, evaluated on day 45",163 [7 of 8 alive] and 182 % of control
same,T/C,"dose: 1.3 mg/kg/injection, schedule: Q04DX003 (ip), vehicle: saline, evaluated on day 60",192 % of control
same,T/C,"dose: 1.5 mg/kg/injection, schedule: Q04DX003 (ip), vehicle: saline","103, 105, 129 [survivors not given], 194 % of control [survivors not given]"
same,T/C,"dose: 1.5 mg/kg/injection, schedule: Q04DX003 (ip), vehicle: water",133 % of control
same,T/C,"dose: 1.56 mg/kg/injection, schedule: Q01DX001 (ip), vehicle: saline",149 % of control
same,T/C,"dose: 1.56 mg/kg/injection, schedule: Q01DX009 (ip), vehicle: water, evaluated on day 30","86, 91, 95, 100, 101, 112, 192, 200, 205, 210, 240, 242, 257 % of control"
same,T/C,"dose: 1.56 mg/kg/injection, schedule: Q01DX009 (ip), vehicle: water, evaluated on day 45","92, 99, 100, 105, 109, 111, 119, 122 (2×), 196, 213, 215, 216 (2×), 224, 227 % of control (2×)"
same,survivor count,"dose: 1.56 mg/kg/injection, schedule: Q01DX009 (ip), vehicle: water",3 of 6 and 6 of 6 (2×)
same,T/C,"dose: 1.6 mg/kg/injection, schedule: Q01DX004 (ip), vehicle: saline",147 % of control
same,T/C,"dose: 1.62 mg/kg/injection, schedule: Q04DX003 (ip), vehicle: saline, evaluated on day 45","118, 155, 156, 162, 169, 180, 182, 185, 188 (2×), 196 % of control"
same,T/C,"dose: 1.62 mg/kg/injection, schedule: Q04DX003 (ip), vehicle: saline, evaluated on day 60",163 % of control
same,T/C,"dose: 1.8 mg/kg/injection, schedule: Q01DX001 (ip), vehicle: saline",139 % of control
same,T/C,"dose: 1.8 mg/kg/injection, schedule: Q01DX009 (ip), vehicle: saline, evaluated on day 30",182 % of control
same,T/C,"dose: 1.8 mg/kg/injection, schedule: Q01DX009 (ip), vehicle: saline, evaluated on day 45",205 % of control
same,T/C,"dose: 1.8 mg/kg/injection, schedule: Q01DX009 (ip), vehicle: saline, evaluated on day 60",163 and 259 % of control
same,T/C,"dose: 2.0 mg/kg/injection, schedule: Q01DX001 (ip), vehicle: other",141 % of control [9 of 10 alive]
same,T/C,"dose: 2.0 mg/kg/injection, schedule: Q01DX001 (ip), vehicle: saline with Tween-80",132 % of control
same,T/C,"dose: 2.0 mg/kg/injection, schedule: Q01DX001 (ip), vehicle: saline, evaluated on day 3",160 % of control
same,T/C,"dose: 2.0 mg/kg/injection, schedule: Q01DX001 (ip), vehicle: saline, evaluated on day 5","93, 100, 102 (2×), 118, 119, 131, 134 % of control"
same,T/C,"dose: 2.0 mg/kg/injection, schedule: Q01DX001 (ip), vehicle: saline, evaluated on day 7","129, 143, 148 % of control"
same,T/C,"dose: 2.0 mg/kg/injection, schedule: Q01DX001 (ip), vehicle: saline, evaluated on day 9",124 and 130 % of control
same,T/C,"dose: 2.0 mg/kg/injection, schedule: Q01DX001 (ip), vehicle: saline, evaluated on day 30",129 and 189 % of control
same,T/C,"dose: 2.0 mg/kg/injection, schedule: Q01DX001 (ip), vehicle: saline, evaluated on day 35",139 % of control
same,T/C,"dose: 2.0 mg/kg/injection, schedule: Q01DX001 (ip), vehicle: saline, evaluated on day 45",119 % of control
same,T/C,"dose: 2.0 mg/kg/injection, schedule: Q01DX001 (ip), vehicle: saline, evaluated on day 60",122 % of control
same,T/C,"dose: 2.0 mg/kg/injection, schedule: Q01DX005 (sc), vehicle: water",130 % of control
same,T/C,"dose: 2.0 mg/kg/injection, schedule: Q01DX009 (ip), vehicle: saline, evaluated on day 5",222 and 300 % of control
same,T/C,"dose: 2.0 mg/kg/injection, schedule: Q01DX009 (ip), vehicle: saline, evaluated on day 30",112 and 127 % of control
same,T/C,"dose: 2.0 mg/kg/injection, schedule: Q01DX009 (ip), vehicle: saline, evaluated on day 45","214, 216, 228, 305 % of control"
same,T/C,"dose: 2.0 mg/kg/injection, schedule: Q01DX009 (ip), vehicle: saline, evaluated on day 60","103, 182, 264 % of control"
same,survivor count,"dose: 2.0 mg/kg/injection, schedule: Q01DX009 (ip), vehicle: saline",10 of 10
same,T/C,"dose: 2.0 mg/kg/injection, schedule: Q01DX009 (ip), vehicle: water, evaluated on day 5",136 % of control
same,T/C,"dose: 2.0 mg/kg/injection, schedule: Q01DX009 (ip), vehicle: water, evaluated on day 30","90, 95, 98, 99, 106 (2×), 107, 108, 109 (2×), 110 (2×), 111, 115 (2×), 116, 117, 132, 151, 153, 163, 181, 190, 194 (2×), 202, 215, 223, 250, 254, 257 [5 of 6 alive], 278 % of control [5 of 6 alive]"
same,T/C,"dose: 2.0 mg/kg/injection, schedule: Q01DX009 (ip), vehicle: water, evaluated on day 45","87, 89, 101, 104 (2×), 107, 114, 121, 132, 141, 165 (2×), 180, 191, 192, 210, 219, 236, 259, 267 % of control"
same,T/C,"dose: 2.0 mg/kg/injection, schedule: Q01DX009 (ip), vehicle: water, evaluated on day 60",113 % of control
same,survivor count,"dose: 2.0 mg/kg/injection, schedule: Q01DX009 (ip), vehicle: water",6 of 6 (2×)
same,T/C,"dose: 2.0 mg/kg/injection, schedule: Q04DX003 (ip), vehicle: saline, evaluated on day 5","172, 189, 200, 216, 231 % of control"
same,T/C,"dose: 2.0 mg/kg/injection, schedule: Q04DX003 (ip), vehicle: saline, evaluated on day 8",137 % of control
same,T/C,"dose: 2.0 mg/kg/injection, schedule: Q04DX003 (ip), vehicle: saline, evaluated on day 9",136 % of control
same,T/C,"dose: 2.0 mg/kg/injection, schedule: Q04DX003 (ip), vehicle: saline, evaluated on day 30","108, 116, 117 (2×), 118 (3×), 119, 120, 122, 128, 130, 133, 135, 137, 138, 144, 153, 179 % of control"
same,T/C,"dose: 2.0 mg/kg/injection, schedule: Q04DX003 (ip), vehicle: saline, evaluated on day 45","168, 176, 205 % of control"
same,T/C,"dose: 2.0 mg/kg/injection, schedule: Q04DX003 (ip), vehicle: water, evaluated on day 30, list 1 of 2","109 [5 of 6 alive], 110, 112, 113, 115 [5 of 6 alive], 119, 120, 121 (2×), 122 (2×), 123 (2×), 124, 126 (3×), 127, 128 (2×), 129 (2×), 132, 133, 134, 135 [5 of 6 alive on day 9], 137 (2×), 138, 142, 145 (2×), 154, 161, 164 % of control"
